Results: the supplement of paper PMC8426693
The other results are listed elsewhere or left out.

Key:
Assay in all cases: NMR binding call after quantification (hit when 2 of 3 NMR criteria are met) (binary (1 = binding, 0 = not binding)); higher = binding
Details in all cases: RNA concentration 10 µM; fragment concentration 200 µM; 293 K
SARS-CoV-2 5_SL7 RNA = tested on: SARS-CoV-2 5_SL7 RNA
SARS-CoV-2 5_SL8 RNA = tested on: SARS-CoV-2 5_SL8 RNA
[1] = tested on: SARS-CoV-2 attenuator hairpin (att HP) RNA
[2] = tested on: SARS-CoV-2 frameshift pseudoknot (PK) RNA

Measured: NMR binding call

Cc1cccc(NC(=O)Nc2nc(C)cs2)c1
0: SARS-CoV-2 5_SL7 RNA | SARS-CoV-2 5_SL8 RNA | [1] | [2]

CC(C)c1ccc(NC(=O)N2CCOCC2)cc1
0: SARS-CoV-2 5_SL7 RNA | SARS-CoV-2 5_SL8 RNA | [1] | [2]

O=c1[nH]cc(N2CCOCC2)c(=O)[nH]1
0: SARS-CoV-2 5_SL7 RNA | SARS-CoV-2 5_SL8 RNA | [1] | [2]

CCn1cc(NC(=O)C2CCC2)cn1
0: SARS-CoV-2 5_SL7 RNA | SARS-CoV-2 5_SL8 RNA | [1] | [2]

CC1CCN(C(=O)c2cc3ccccc3o2)CC1
0: SARS-CoV-2 5_SL7 RNA | SARS-CoV-2 5_SL8 RNA | [1] | [2]

NC(=O)c1ccccc1NC(=O)c1ccncc1
0: SARS-CoV-2 5_SL7 RNA | SARS-CoV-2 5_SL8 RNA | [1] | [2]

CNS(=O)(=O)c1ccccc1Cl
0: SARS-CoV-2 5_SL7 RNA | SARS-CoV-2 5_SL8 RNA | [1] | [2]

COc1ccc(C(=O)C2CCNCC2)cc1
0: SARS-CoV-2 5_SL7 RNA | SARS-CoV-2 5_SL8 RNA | [1] | [2]

CCc1ccc(NC(=O)c2cnccn2)cc1
0: SARS-CoV-2 5_SL7 RNA | SARS-CoV-2 5_SL8 RNA | [1] | [2]

Cc1ccccc1OCC(=O)N(C)C
0: SARS-CoV-2 5_SL7 RNA | SARS-CoV-2 5_SL8 RNA | [1] | [2]

CC(=O)Nc1ccc(OC(=O)N2CCCC2)cc1
0: SARS-CoV-2 5_SL7 RNA | SARS-CoV-2 5_SL8 RNA | [1] | [2]

Cc1cc(C(=O)NCC2CCCO2)ns1 (configuration not stated)
0: SARS-CoV-2 5_SL7 RNA | SARS-CoV-2 5_SL8 RNA | [1] | [2]

Cc1cccc(C(=O)N(C)C)c1C
0: SARS-CoV-2 5_SL7 RNA | SARS-CoV-2 5_SL8 RNA | [1] | [2]

CC(=O)N1CCC(C#N)CC1
0: SARS-CoV-2 5_SL7 RNA | SARS-CoV-2 5_SL8 RNA | [1] | [2]

CCCc1cc(=O)oc2cc(OC(C)=O)ccc12
0: SARS-CoV-2 5_SL7 RNA | SARS-CoV-2 5_SL8 RNA | [1] | [2]

CCn1nccc1CNC.Cl.Cl
0: SARS-CoV-2 5_SL7 RNA | SARS-CoV-2 5_SL8 RNA | [1] | [2]

CC(C)(O)CNC1CCOCC1
0: SARS-CoV-2 5_SL7 RNA | SARS-CoV-2 5_SL8 RNA | [1] | [2]

Cl.Cl.Cl.FC(F)n1ccnc1CN1CCNCC1
0: SARS-CoV-2 5_SL7 RNA | SARS-CoV-2 5_SL8 RNA | [1] | [2]

Cn1cc(C(N)=O)c(C(F)F)n1
0: SARS-CoV-2 5_SL7 RNA | SARS-CoV-2 5_SL8 RNA | [1] | [2]

CC(=O)NCCc1ccccc1C
0: SARS-CoV-2 5_SL7 RNA | SARS-CoV-2 5_SL8 RNA | [1] | [2]

CS(=O)(=O)CC(O)c1ccccc1 (configuration not stated)
0: SARS-CoV-2 5_SL7 RNA | SARS-CoV-2 5_SL8 RNA | [1] | [2]

Fc1ccc(NC2CCOCC2)nc1
0: SARS-CoV-2 5_SL7 RNA | SARS-CoV-2 5_SL8 RNA | [1] | [2]

CC1CN(S(=O)(=O)N(C)C(C)C)CCO1 (configuration not stated)
0: SARS-CoV-2 5_SL7 RNA | SARS-CoV-2 5_SL8 RNA | [1] | [2]

c1ccc(Nc2nncs2)cc1
0: SARS-CoV-2 5_SL7 RNA | SARS-CoV-2 5_SL8 RNA | [1] | [2]

CCC(=O)Nc1nnc(C2CCCCC2)s1
0: SARS-CoV-2 5_SL7 RNA | SARS-CoV-2 5_SL8 RNA | [1] | [2]

Nc1cccc(OCc2ccccc2)c1
0: SARS-CoV-2 5_SL7 RNA | SARS-CoV-2 5_SL8 RNA | [1] | [2]

CN(C(=O)C1CCNC1)c1ccccc1.Cl (configuration not stated)
0: SARS-CoV-2 5_SL7 RNA | SARS-CoV-2 5_SL8 RNA | [1] | [2]

C1CN(Cc2nc(C3CC3)no2)CCO1
0: SARS-CoV-2 5_SL7 RNA | SARS-CoV-2 5_SL8 RNA | [1] | [2]

CC(=O)N1CC2CCC1c1ccccc12 (configuration not stated)
0: SARS-CoV-2 5_SL7 RNA | SARS-CoV-2 5_SL8 RNA | [1] | [2]

CC(=O)Nc1ccc(N2CCN(C)CC2)cc1
0: SARS-CoV-2 5_SL7 RNA | SARS-CoV-2 5_SL8 RNA | [1] | [2]

C1CC(Cc2nc(C3CC3)no2)CCN1
0: SARS-CoV-2 5_SL7 RNA | SARS-CoV-2 5_SL8 RNA | [1] | [2]

CNC1(CO)CCOCC1
0: SARS-CoV-2 5_SL7 RNA | SARS-CoV-2 5_SL8 RNA | [1] | [2]

Cc1ncsc1C(=O)N1CCNC(=O)C1
0: SARS-CoV-2 5_SL7 RNA | SARS-CoV-2 5_SL8 RNA | [1] | [2]

O=C(Nc1nccs1)C1CC1c1ccccc1 (configuration not stated)
0: SARS-CoV-2 5_SL7 RNA | SARS-CoV-2 5_SL8 RNA | [1] | [2]

O=C(O)Cc1ccc(-c2ccccc2)cc1
0: SARS-CoV-2 5_SL7 RNA | SARS-CoV-2 5_SL8 RNA | [1] | [2]

CNc1ncccn1
0: SARS-CoV-2 5_SL7 RNA | SARS-CoV-2 5_SL8 RNA | [1] | [2]

Compounds from the list above that contain a halogen:
CNS(=O)(=O)c1ccccc1Cl
0: SARS-CoV-2 5_SL7 RNA | SARS-CoV-2 5_SL8 RNA | [1] | [2]

CCn1nccc1CNC.Cl.Cl
0: SARS-CoV-2 5_SL7 RNA | SARS-CoV-2 5_SL8 RNA | [1] | [2]

Cl.Cl.Cl.FC(F)n1ccnc1CN1CCNCC1
0: SARS-CoV-2 5_SL7 RNA | SARS-CoV-2 5_SL8 RNA | [1] | [2]

Cn1cc(C(N)=O)c(C(F)F)n1
0: SARS-CoV-2 5_SL7 RNA | SARS-CoV-2 5_SL8 RNA | [1] | [2]

Fc1ccc(NC2CCOCC2)nc1
0: SARS-CoV-2 5_SL7 RNA | SARS-CoV-2 5_SL8 RNA | [1] | [2]

CN(C(=O)C1CCNC1)c1ccccc1.Cl (configuration not stated)
0: SARS-CoV-2 5_SL7 RNA | SARS-CoV-2 5_SL8 RNA | [1] | [2]

The listing continues:

COc1cc(NC(C)=O)c(OC)cc1Cl
0: SARS-CoV-2 5_SL7 RNA | SARS-CoV-2 5_SL8 RNA | [1] | [2]

CCOc1cccc(C(=O)Nc2nnn(C)n2)c1
0: SARS-CoV-2 5_SL7 RNA | SARS-CoV-2 5_SL8 RNA | [1] | [2]

O=C(Nc1ccc2ncccc2c1)c1ccccc1
0: SARS-CoV-2 5_SL7 RNA | [1] | [2]
1: SARS-CoV-2 5_SL8 RNA

Fc1ccc(CNCc2ccccc2)cc1
0: SARS-CoV-2 5_SL7 RNA | SARS-CoV-2 5_SL8 RNA | [1] | [2]

CC(C)(C)N1CC(O)C1
0: SARS-CoV-2 5_SL7 RNA | SARS-CoV-2 5_SL8 RNA | [1] | [2]

CC1CCOC1C(=O)Nc1cnns1 (configuration not stated)
0: SARS-CoV-2 5_SL7 RNA | SARS-CoV-2 5_SL8 RNA | [1] | [2]

COCC(=O)Nc1nc(-c2ccccc2)cs1
0: SARS-CoV-2 5_SL7 RNA | SARS-CoV-2 5_SL8 RNA | [1] | [2]
